The whole screen tested about 330,000 compounds, of which about 4,200 (1.3%) were called active. Another 6% or so got no clear call; they are omitted. The call rests on the fitted dose curve; in most records, active means well fitted activation curve with a large enough effect; inconclusive means small, poorly fitted or top-dose-only effect; inactive means no such curve, though single readings can be large or run the other way. The list shows a part of the results, in another mix than the full data. Where no call is shown, the source filed none.
Assay: qHTS screen for small molecules that induce genotoxicity in human embryonic kidney (HEK293T) cells expressing luciferase-tagged ELG1; further: nearly all actives have a fitted effect of over 60% in size; on activity change, positive = activation: % of control where 0% means no effect
Conditions: HEK293T ELG1-luciferase reporter, luminescence, 16 h; activity change, positive = activation: at 46 µM (top of the series)
Description: NIH Molecular Libraries Probe Production Network [MLPCN] NIH Chemical Genomics Center [NCGC] MLPCN Grant: 1 R03 MH092164-01 Assay Provider: Kyungjae Myung, NHGRI, NIH Keywords: MLPCN, qHTS, NCGC, genotoxicity, cancer Assay Overview: Cancer cells divide rapidly compared to normal cells in the body. During cell division, cancer cells need to duplicate their genome by DNA replication. The failure of genome duplication leads to cancer cells' death. Therefore, inhibitors of DNA replication could specifically kill cancer cells. Based on this concept, many chemotherapeutic agents were developed and have been used to treat cancer patients. However, there are a limited number of agents available in the clinical setting, and some of those that do exist have low efficacy and severe side effects. Therefore, if we can find the compounds that effectively block DNA replication either by directly damaging DNA or by inhibiting other cellular mechanisms, the options for cancer treatment will be broadened. With this in mind, we developed a quantitative high-throughput ELG1-luciferase reporter gene assay. Since the level of human ELG1 protein is enhanced in response to genetic stresses, increases in luciferase activity can be used to identify compounds that cause genetic stress.
Assay Protocol Summary: For genotoxicity screening, 2,000 cells in 5 uL/well were dispensed into white, solid-bottom 1536-well plates using a solenoid-based dispenser. Following transfer of 23 nL compound or DMSO vehicle by a pin tool, the plates were incubated 16 hr at 37 °C and 5% CO2. 5 ul ONE-Glo (Promega) was then added to each plate and following a 30 min incubation at room temperature, luciferase activity was quantified on a ViewLux CCD-based plate reader.
Potency means the concentration at half of the fitted maximal effect.

| Compound | activity change, positive = activation | Potency |
| --- | --- | --- |
| COc1ccc(C(c2nnnn2CCc2ccccc2)N2CCN(C3CCCC3)CC2)cc1 (configuration not stated) | 7.76% |  |
| c1ccc(-c2csc3ncnc(NCCN4CCOCC4)c23)cc1 | inactive: -23% |  |
| CCOc1ccccc1N1CCN(c2ncnc3scc(-c4ccc(OC)cc4)c23)CC1 | inactive: -33.6% |  |
| Cc1c(C(=O)N2CCOCC2)oc2ccc(S(=O)(=O)N3CCCC3)cc12 | 15.4% |  |
| c1ccc(-c2noc(-c3ccc4c(c3)OCO4)n2)cc1 |  | active: 0.411 µM |
| c1ccc(SCc2nc(-c3cccnc3)no2)cc1 |  | active: 3.66 µM |
| O=c1c(/C=N/O)coc2ccc3ccccc3c12 | 45.6% |  |
| O=C1COc2ccc(C(=O)COC(=O)c3ccc(Cl)cc3[N+](=O)[O-])cc2N1 | 26.5% |  |
| COc1ccc(/C=C2/CCc3ccccc3C2=O)cc1CN1CCOCC1 | inactive: 17.6% |  |
| C=C(C)CN1CCN(c2ccc(N3C(=O)CCCC3=O)cc2[N+](=O)[O-])CC1 | 38.3% |  |
| COc1ccc(C(=O)/C=C/Nc2ccccn2)cc1 | -1.89% |  |
| COc1ccccc1-n1c(SCC(=O)Nc2cccc(C)c2)nc2c(c1=O)SCC2 | -0.214% |  |
| O=C(Nc1ccccc1)c1ccc(-c2ccccc2)s1 |  | active: 5.17 µM |
| c1ccc2nc(-c3ccc4c(c3)OCO4)ccc2c1 |  | active: 2.59 µM |
| CC(C)C[C@H](NC(=O)Nc1ccc2c(c1)OCCO2)C(=O)O | inactive: -21.1% |  |
| C=CCOc1ccc(CN(C)C(=O)CNC(=O)c2ccc(-c3ccccc3)cc2)cc1 | inactive: -31.7% |  |
| Cc1ccc(CNc2ncccc2-c2nc3cc(Cl)ccc3o2)cc1 | 22.9% |  |
| CC1=C(C(=O)OCc2ccc3c(c2)OCO3)C(c2ccccc2)NC(=O)N1 (configuration not stated) | inactive: -23.2% |  |
| Cc1ccc(Cl)cc1NC(=O)C1CCCN(S(=O)(=O)c2c(C)noc2C)C1 (configuration not stated) | 4.99% |  |
| CCCCC(=O)Nc1cccc(NC(=S)NC(=O)Cc2ccccc2)c1 | 6.83% |  |
| O=C(NC(=S)Nc1nc2c(s1)CSc1ccccc1-2)c1ccccc1 | 0.661% |  |
| COc1ccc([C@@H](C)NC(=O)CCc2nnc(-c3cc(C)on3)o2)cc1 | 10.4% |  |
| COc1cccc(N/C=C/C(=O)c2ccc(C)cc2)c1 |  | active: 1.46 µM |

Six compounds out of the list, ordered by formula weight, high to low:

| Compound | activity change, positive = activation | Potency |
| --- | --- | --- |
| COc1ccc(C(c2nnnn2CCc2ccccc2)N2CCN(C3CCCC3)CC2)cc1 (configuration not stated) | 7.76% |  |
| O=C1COc2ccc(C(=O)COC(=O)c3ccc(Cl)cc3[N+](=O)[O-])cc2N1 | 26.5% |  |
| O=C(NC(=S)Nc1nc2c(s1)CSc1ccccc1-2)c1ccccc1 | 0.661% |  |
| COc1ccc([C@@H](C)NC(=O)CCc2nnc(-c3cc(C)on3)o2)cc1 | 10.4% |  |
| O=C(Nc1ccccc1)c1ccc(-c2ccccc2)s1 |  | active: 5.17 µM |
| c1ccc2nc(-c3ccc4c(c3)OCO4)ccc2c1 |  | active: 2.59 µM |

Following part

| Compound | activity change, positive = activation | Potency |
| --- | --- | --- |
| Fc1ccc(SCCc2ccccn2)cc1 | inactive: 14.4% |  |
| COc1ccc(C(=O)N(Cc2ccccc2)c2ccc(C)cc2)cc1S(=O)(=O)N1CCOCC1 | 69.3% |  |
| CC(C)(C)NC(=O)C(c1ccncc1)N(Cc1ccc(F)cc1)C(=O)c1ccc(-c2ccccc2)[nH]1 (configuration not stated) | -10% |  |
| C1=C(CCNC2=NCCCCC2)CCCC1 | inactive: -24.7% |  |
| COc1cc(NC(=O)C(C)Oc2ccccc2)c(OC)cc1NC(=O)c1ccccc1 (configuration not stated) | inactive: -27.1% |  |
| CCOc1cc(S(=O)(=O)NC2CCCCCC2)ccc1F | 73.4% |  |
| Cc1ccc(C(=O)Nc2ncccc2O)o1 | 86.4% |  |
| Cc1ccc(S(=O)(=O)CNC(=O)c2ccccc2)cc1 | 50.8% |  |
| O=C(Oc1ccc(-c2cn3c(n2)SCC3)cc1)c1ccccc1 |  | active: 18.4 µM |
| O=C(O)c1cccc(COc2ccccc2Cl)c1 | -50.7% |  |
| NC(=O)NCc1ccc(Cl)cc1 | 4.1% |  |
| Cc1cc2cc(CCNC(=O)c3c(-c4ccccc4Cl)noc3C)c(=O)[nH]c2cc1C | inactive: -22.8% |  |
| COc1ccc(CNC(=O)CCCn2nc(C)c([N+](=O)[O-])c2C)cc1OC | 12.9% |  |
| Cc1noc(/C=C/c2ccccn2)c1[N+](=O)[O-] | inactive: -32.4% |  |
| O=C(NCCc1c[nH]c2ccccc12)c1cnc2sccn2c1=O |  | active: 8.2 µM |
| CCn1c(SCC(=O)NCc2ccco2)nnc1-c1ccc(N)cc1 | 36.2% |  |
| c1ccc2nc(-c3nc4ccccc4[nH]3)ccc2c1 | 33.6% |  |
| COc1ccc(Cn2c(C3CC3)nc3ccc(NC(=O)C4CC4)cc3c2=O)cc1 |  | active: 2.59 µM |
| C[N+](C)(CCCCCC[N+](C)(C)CCCN1C(=O)c2cccc3cccc(c23)C1=O)CCCN1C(=O)c2cccc3cccc(c23)C1=O | 37.9% |  |
| NNC(=O)c1ccc(COc2cccc3cccnc23)cc1 | 1.22% |  |
| S=C(NCCc1c[nH]c2ccccc12)NC1CC1 | 4.86% |  |
| O=C(O)c1cc(O)c2c(c1)[C@@H]([C@H]1c3cc(C(=O)O)cc(O)c3C(=O)c3c(O[C@@H]4O[C@H](CO)[C@@H](O)[C@H](O)[C@H]4O)cccc31)c1cccc(OC3O[C@H](CO)[C@@H](O)[C@H](O)[C@H]3O)c1C2=O (some centres not stated) | -7.59% |  |
| O=C(CC1Nc2ccccc2NC1=O)c1ccccc1 (configuration not stated) |  | active: 9.2 µM |

| Compound | activity change, positive = activation | Potency |
| --- | --- | --- |
| O=C(Nc1nc2ccccc2[nH]1)c1cc2ccccc2o1 |  | active: 2.31 µM |
| Cc1ccsc1/C=N/Nc1nc2ccccc2s1 |  | active: 1.46 µM |
| Cc1nn(-c2c(Cl)cc(Cl)cc2Cl)c(=O)c2ccccc12 | -2.16% |  |
| COc1ccc(Cc2nnc(-c3ccccc3)o2)cc1 | 67.7% |  |
| CC1=C/C(=C(/c2cc(C)c(O)c(Br)c2)c2ccccc2S(=O)(=O)O)C=C(Br)C1=O | inactive: -11.5% |  |
| O=[N+]([O-])c1cc([N+](=O)[O-])c(Oc2cccnc2Br)cc1NN1CCCCC1 | 19.3% |  |
| Cc1ccccc1N1C(=O)CC(N(O)c2ccccc2)C1=O (configuration not stated) | 65.7% |  |
| C(#Cc1ccccc1)CN1CCOCC1 | -16.3% |  |
| Cc1ncc(CO)c2c1Oc1nc(-c3ccccc3)nc(SCC(=O)N(C)c3ccccc3)c1C2 | 6.31% |  |
| N#CC1=C(N)SC(N)=C(C#N)C1Cc1ccccc1 | -4.35% |  |
| CCC(=O)N1CCc2cc(Br)cc(S(=O)(=O)N3CCC(C(=O)NCCCOC(C)C)CC3)c21 | inactive: -32.8% |  |
| O=C1C[C@H]2[C@H](CO)[C@@H](OC(=O)c3ccc(-c4ccccc4)cc3)C[C@H]2O1 | inactive: 16.2% |  |
| N#C/C(Cn1c[n+](NC(=O)Nc2ccccc2)cn1)=N/O | 2.97% |  |
| O=[N+]([O-])c1ccccc1NCc1ccc(Cl)cc1 | 16.8% |  |
| CCc1ccc(NC(=O)N(CCN2CCOCC2)Cc2ccc3c(c2)CCCN3CC)cc1 | -15.7% |  |
| Cc1ccc(-c2cc3nc(C)cc(NCc4ccco4)n3n2)cc1 |  | active: 4.11 µM |
| Oc1ccc2ccc3[nH]cnc3c2c1 | -7.39% |  |
| COCCNC(=O)c1ccc(S(=O)(=O)N2CCCc3ccccc32)cc1 | 7.56% |  |
| CCOc1nc(NCCO)nc(Nc2cc(Cl)ccc2OC)n1 | 32.7% |  |
| O=C(N/N=C/c1cccs1)c1ccc2c(c1)OCO2 |  | active: 9.2 µM |
| O=C(COC(=O)CCc1nc2ccccc2c(=O)[nH]1)NC1CCS(=O)(=O)C1 (configuration not stated) | 22.3% |  |
